Results published in article PMC6029753.
No constants are given. Whether binding was seen depends on the method and setting. Binding seen in cells or lysates may run through a third protein. Some entries that bind do so weakly or less than the wild type.

Amino acid sequences for entries named in this document (tags omitted).
UniProt Q9ERK7: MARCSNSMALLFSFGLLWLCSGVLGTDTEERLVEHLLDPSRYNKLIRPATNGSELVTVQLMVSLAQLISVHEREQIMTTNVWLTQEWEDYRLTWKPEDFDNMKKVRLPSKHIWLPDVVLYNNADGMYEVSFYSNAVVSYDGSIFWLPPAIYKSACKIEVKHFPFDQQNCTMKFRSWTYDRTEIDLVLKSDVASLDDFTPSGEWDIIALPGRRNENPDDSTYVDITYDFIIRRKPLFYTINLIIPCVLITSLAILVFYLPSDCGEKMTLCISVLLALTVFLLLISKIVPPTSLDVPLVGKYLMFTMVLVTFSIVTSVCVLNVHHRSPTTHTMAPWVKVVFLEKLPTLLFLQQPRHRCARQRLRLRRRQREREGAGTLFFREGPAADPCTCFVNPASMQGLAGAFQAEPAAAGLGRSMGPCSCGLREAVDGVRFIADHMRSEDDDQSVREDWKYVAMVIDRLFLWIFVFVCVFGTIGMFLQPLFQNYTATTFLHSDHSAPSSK

Molecular target: β2-GFP nAChR subunit (mouse (β2-GFP knockin mouse)) (UniProt Q9ERK7)
Test: co-IP; rabbit anti-GFP antibodies on Dynabeads A; homogenate (13 mg/ml) of β2-GFP knockin dorsal brain regions containing the DRN, 3 days rotating at RT; 50 mM Tris, 150 mM NaCl, 0.75% Triton-X 100, protease inhibitors; Western blot with anti-lynx1

B1: lynx1 (protein, UniProt P0DP60 21-92)
chain: LECHVCAYNGDNCFKPMRCPAMATYCMTTRTYFTPYRMKVRKSCVPSCFETVYDGYSKHASATSCCQYYLCN
binding: binds
